Test results published in the supplement of paper PMC10849652.
The other results are listed elsewhere or left out.

Protein sequences, listed by entry. Tags and fused reporters are not part of them. Lines headed by an entry give the natural chain unless they say otherwise; changes in a name come on top.
UniProt P61225: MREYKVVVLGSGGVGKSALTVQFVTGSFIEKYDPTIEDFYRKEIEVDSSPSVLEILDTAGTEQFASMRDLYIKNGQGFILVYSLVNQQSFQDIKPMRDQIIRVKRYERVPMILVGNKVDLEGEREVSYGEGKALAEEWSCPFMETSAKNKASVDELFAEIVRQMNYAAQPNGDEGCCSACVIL
UniProt Q969Q5: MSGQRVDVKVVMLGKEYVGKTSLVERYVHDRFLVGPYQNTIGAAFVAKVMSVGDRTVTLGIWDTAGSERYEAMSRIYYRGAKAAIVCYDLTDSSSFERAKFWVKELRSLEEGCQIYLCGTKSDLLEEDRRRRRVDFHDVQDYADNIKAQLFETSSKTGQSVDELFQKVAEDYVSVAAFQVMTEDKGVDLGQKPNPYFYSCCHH
UniProt P78406: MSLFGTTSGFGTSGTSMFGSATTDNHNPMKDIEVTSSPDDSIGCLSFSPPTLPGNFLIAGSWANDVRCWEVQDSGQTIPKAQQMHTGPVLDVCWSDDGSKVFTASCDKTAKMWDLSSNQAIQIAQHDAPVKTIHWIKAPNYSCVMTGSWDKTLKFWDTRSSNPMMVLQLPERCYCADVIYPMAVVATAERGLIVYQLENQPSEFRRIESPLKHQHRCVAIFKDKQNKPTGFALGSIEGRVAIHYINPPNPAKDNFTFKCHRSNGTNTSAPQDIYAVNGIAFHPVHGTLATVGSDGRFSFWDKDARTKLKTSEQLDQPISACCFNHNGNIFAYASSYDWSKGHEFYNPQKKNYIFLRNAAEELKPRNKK
UniProt Q9UL26: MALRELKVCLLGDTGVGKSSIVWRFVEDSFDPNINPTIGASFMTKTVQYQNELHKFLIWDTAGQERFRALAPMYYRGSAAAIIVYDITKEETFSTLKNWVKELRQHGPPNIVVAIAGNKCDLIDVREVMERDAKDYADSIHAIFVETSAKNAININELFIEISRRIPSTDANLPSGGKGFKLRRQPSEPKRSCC
UniProt Q5T160: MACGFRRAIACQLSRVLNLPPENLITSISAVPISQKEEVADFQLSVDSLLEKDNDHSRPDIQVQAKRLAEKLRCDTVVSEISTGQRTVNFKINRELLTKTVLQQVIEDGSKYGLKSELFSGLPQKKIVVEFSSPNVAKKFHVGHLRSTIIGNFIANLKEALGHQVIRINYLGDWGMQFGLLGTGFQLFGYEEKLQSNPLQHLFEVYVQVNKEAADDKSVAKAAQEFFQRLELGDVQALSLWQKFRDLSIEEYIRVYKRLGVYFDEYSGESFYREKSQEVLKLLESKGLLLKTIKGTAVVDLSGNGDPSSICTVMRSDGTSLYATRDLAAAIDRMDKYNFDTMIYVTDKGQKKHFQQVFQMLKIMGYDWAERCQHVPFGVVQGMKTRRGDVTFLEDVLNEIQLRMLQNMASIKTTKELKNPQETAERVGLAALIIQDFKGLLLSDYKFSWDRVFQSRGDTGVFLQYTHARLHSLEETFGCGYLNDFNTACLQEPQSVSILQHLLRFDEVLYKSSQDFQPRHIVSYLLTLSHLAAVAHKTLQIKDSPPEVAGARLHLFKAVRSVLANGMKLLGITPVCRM
UniProt P62820, whole entry, looked up: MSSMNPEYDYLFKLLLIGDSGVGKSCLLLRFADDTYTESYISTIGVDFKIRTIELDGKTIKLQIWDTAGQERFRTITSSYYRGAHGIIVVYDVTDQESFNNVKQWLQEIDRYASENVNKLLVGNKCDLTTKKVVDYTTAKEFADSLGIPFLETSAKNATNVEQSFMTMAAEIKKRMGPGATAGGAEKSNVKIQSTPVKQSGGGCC
UniProt Q8WZA2: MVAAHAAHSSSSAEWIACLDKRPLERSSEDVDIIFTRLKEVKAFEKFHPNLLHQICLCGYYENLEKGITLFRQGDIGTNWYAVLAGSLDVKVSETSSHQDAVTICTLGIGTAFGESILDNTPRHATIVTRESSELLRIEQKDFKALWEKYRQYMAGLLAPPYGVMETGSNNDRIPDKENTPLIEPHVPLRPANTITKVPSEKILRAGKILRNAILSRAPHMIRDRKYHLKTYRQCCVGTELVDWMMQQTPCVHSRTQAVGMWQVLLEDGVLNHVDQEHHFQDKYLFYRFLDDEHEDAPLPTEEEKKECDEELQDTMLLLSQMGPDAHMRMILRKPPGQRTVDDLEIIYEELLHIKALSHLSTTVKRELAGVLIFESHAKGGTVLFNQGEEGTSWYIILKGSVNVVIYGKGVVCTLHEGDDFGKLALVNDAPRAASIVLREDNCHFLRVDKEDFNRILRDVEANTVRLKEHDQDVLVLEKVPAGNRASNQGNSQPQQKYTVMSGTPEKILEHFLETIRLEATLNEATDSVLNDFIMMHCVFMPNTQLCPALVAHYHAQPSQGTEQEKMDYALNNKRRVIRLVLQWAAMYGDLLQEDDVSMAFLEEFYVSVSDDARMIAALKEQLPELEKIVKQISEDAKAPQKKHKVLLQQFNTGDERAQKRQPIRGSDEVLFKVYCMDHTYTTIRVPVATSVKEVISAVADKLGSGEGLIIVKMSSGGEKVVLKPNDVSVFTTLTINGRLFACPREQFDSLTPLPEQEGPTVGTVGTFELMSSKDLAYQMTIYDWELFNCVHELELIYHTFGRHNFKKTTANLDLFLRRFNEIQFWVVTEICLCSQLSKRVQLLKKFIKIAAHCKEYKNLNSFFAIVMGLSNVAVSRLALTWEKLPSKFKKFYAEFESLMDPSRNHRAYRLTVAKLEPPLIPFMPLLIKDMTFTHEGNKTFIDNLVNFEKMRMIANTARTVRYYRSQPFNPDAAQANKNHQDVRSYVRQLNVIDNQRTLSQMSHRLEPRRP
UniProt Q9NX57: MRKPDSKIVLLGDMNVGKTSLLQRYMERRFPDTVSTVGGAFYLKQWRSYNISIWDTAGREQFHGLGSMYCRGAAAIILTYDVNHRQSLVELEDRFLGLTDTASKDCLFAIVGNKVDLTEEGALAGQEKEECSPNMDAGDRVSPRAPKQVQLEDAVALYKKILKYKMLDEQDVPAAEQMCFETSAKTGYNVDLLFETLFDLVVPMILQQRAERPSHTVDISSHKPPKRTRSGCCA
UniProt Q8TDY2, whole entry, looked up: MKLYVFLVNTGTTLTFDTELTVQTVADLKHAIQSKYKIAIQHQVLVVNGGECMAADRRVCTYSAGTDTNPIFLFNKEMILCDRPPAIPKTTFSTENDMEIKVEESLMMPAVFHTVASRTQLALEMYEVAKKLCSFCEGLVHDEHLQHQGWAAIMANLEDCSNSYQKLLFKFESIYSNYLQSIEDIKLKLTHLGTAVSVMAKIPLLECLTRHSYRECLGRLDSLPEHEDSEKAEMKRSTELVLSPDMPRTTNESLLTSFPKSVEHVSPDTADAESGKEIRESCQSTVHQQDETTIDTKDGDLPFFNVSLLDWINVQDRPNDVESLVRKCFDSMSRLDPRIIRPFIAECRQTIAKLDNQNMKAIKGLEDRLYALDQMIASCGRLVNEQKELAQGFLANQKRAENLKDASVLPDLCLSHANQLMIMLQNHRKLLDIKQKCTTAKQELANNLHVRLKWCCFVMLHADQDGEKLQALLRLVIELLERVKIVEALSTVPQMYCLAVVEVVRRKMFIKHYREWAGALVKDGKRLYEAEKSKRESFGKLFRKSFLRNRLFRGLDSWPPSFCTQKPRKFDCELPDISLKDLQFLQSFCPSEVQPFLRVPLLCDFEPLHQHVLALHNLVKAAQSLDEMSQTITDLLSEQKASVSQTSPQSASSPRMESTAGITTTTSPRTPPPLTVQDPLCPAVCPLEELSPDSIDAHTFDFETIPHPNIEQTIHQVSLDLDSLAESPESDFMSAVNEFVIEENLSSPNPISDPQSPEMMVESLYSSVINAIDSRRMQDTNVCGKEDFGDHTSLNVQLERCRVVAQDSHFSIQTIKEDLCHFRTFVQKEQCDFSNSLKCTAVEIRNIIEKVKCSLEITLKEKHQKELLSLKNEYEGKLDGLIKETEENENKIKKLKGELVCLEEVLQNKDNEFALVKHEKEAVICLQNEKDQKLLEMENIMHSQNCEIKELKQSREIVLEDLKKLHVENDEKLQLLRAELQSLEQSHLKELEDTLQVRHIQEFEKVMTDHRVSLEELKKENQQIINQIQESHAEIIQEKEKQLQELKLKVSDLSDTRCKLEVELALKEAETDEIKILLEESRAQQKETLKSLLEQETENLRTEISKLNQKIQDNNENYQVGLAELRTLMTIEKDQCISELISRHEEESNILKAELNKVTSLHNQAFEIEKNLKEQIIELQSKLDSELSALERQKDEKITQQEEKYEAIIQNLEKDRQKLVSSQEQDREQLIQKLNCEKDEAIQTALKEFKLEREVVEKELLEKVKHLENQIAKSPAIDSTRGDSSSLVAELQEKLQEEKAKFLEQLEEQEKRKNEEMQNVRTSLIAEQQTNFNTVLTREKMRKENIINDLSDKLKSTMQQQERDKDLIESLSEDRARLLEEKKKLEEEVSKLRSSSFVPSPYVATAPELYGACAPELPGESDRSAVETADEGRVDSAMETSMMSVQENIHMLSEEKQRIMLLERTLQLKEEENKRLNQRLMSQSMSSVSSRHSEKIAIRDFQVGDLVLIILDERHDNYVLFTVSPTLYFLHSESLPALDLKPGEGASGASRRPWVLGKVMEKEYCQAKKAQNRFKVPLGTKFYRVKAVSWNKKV
UniProt P54725: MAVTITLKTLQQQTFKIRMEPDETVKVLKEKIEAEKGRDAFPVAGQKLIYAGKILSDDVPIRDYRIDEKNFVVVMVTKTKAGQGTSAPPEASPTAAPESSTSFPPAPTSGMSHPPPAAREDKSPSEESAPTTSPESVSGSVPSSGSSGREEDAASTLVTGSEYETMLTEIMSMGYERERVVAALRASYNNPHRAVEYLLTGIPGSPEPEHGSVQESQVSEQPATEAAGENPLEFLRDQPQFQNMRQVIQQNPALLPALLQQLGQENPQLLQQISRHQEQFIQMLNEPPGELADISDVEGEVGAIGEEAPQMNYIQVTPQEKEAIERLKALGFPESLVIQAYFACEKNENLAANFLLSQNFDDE
UniProt Q8TEU7: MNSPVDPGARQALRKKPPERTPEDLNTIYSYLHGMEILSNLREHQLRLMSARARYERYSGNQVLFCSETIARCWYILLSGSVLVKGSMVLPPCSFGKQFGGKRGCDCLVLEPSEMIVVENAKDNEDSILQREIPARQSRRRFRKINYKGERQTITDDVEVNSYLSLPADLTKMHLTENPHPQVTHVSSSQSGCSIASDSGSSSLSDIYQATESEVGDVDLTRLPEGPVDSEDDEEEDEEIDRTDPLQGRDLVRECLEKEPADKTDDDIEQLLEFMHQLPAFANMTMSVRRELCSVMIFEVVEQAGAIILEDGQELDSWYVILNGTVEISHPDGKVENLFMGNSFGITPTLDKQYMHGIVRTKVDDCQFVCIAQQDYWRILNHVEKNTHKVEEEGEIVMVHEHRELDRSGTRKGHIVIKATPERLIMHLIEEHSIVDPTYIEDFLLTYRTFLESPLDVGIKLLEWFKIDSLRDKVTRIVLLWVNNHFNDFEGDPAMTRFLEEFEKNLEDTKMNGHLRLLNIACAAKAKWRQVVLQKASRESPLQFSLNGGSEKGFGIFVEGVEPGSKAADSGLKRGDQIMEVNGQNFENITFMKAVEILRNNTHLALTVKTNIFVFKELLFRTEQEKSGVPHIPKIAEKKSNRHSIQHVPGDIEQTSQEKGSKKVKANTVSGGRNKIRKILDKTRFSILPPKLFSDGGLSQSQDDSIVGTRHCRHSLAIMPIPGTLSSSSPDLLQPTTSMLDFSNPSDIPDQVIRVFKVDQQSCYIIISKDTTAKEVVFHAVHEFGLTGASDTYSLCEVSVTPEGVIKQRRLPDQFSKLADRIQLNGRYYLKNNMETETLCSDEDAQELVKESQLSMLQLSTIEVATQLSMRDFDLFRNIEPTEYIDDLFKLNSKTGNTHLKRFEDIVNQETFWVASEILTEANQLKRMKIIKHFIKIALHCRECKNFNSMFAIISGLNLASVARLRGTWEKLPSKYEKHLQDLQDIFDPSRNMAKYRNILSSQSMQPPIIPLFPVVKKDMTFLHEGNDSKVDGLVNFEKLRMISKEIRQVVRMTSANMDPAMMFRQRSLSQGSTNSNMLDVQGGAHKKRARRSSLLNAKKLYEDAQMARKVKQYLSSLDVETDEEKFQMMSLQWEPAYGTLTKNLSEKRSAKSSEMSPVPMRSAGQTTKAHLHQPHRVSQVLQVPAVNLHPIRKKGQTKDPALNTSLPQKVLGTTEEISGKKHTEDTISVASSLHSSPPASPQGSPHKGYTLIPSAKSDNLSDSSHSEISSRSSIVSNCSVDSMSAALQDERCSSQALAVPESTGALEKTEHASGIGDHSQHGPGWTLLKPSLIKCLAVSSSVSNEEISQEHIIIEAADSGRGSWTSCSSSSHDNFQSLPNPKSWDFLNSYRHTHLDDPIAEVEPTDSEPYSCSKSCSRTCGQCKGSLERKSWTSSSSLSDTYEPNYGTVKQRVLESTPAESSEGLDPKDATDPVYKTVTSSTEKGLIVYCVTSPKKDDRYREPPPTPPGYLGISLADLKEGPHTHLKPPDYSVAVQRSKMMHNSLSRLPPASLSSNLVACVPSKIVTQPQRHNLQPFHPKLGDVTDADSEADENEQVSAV

What was measured:
Assay in all cases: log2 fold change, soluble protein after heating vs DMSO (PISA); higher = thermal stabilisation; K562 cells, 10 uM, 30 min; active = over 0.2 and 3.5 SD of the protein, either way, in both replicates (recomputed)
[1] = compound: C1=CC=C(C=C1)[C@H](COC2=CC3=C(C=C2)NC(=O)N3)NC(=O)C4=CC=CN(C4=O)CC5=CC(=C(C=C5)F)F
How it was run: (§1)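 Quantification of soluble protein used TMTpro 16plex LC-MS/MS, with channel sums equalised. Samples were the supernatant after 21,000xg for 90 min of pooled aliquots from K562 cells (2×10^6 cells/mL) treated with 10 μM compound for 30 min, heated for 3 min over 48°C-58°C, and extracted in PBS with 0.5% NP-40 at 4°C. Values, from duplicates, describe thermal stability against control samples on a log2 fold-change scale.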

[2] = compound: CC1=C(SC2=C1C(=N[C@H](C3=NN=C(N32)C)CC(=O)N)C4=CC=C(C=C4)Cl)C
How it was run: as §1

[3] = compound: CC1=C2C(=CC=C1)N=C(N(C2=O)C3=CC=CC=C3C)CN4C=NC5=C(N=CN=C54)N
How it was run: as §1

[4] = compound: Cc1sc2c(c1C)C(c1ccc(Cl)cc1)=N[C@@H](CC(=O)OC(C)(C)C)c1nnc(C)n1-2
How it was run: as §1

[5] = compound: c1ccc([C@@H]2C[C@H]2NC2CCNCC2)cc1
How it was run: as §1

Measured: log2 fold change

RAP2B (UniProt P61225)
inactive: [1] 0.001 | [2] 0.003 | [3] 0.027 | [4] 0.028 | [5] 0.037

RAB24 (UniProt Q969Q5)
inactive: [1] 0.019 | [2] -0.001 | [3] -0.041 | [4] 0.003 | [5] 0.057

RAE1 (UniProt P78406)
inactive: [1] -0.056 | [2] -0.029 | [3] -0.041 | [4] 0.06 | [5] -0.015

RAB5IF isoform 5 (UniProt Q9BUV8)
inactive: [1] 0.003 | [2] 0.101 | [3] 0.024 | [4] -0.08 | [5] 0.028

RAB27A (UniProt P51159)
inactive: [1] 0.011 | [2] 0.008 | [3] 0.001 | [4] -0.031 | [5] 0.023

RBBP7 isoform 2 (UniProt Q16576)
inactive: [1] 0.009 | [2] 0.041 | [3] 0.003 | [4] -0.017 | [5] -0.004

RAD51AP1 (UniProt Q96B01)
inactive: [1] 0.026 | [2] 0.02 | [3] -0.055 | [4] 0.054 | [5] 0.078

RAB8B (UniProt Q92930)
inactive: [1] 0.004 | [2] -0.006 | [3] -0.222 | [4] 0.033 | [5] -0.062

RBM27 (UniProt Q9P2N5)
inactive: [1] -0.015 | [2] 0.005 | [3] 0.049 | [4] 0.029 | [5] -0.01

RAB22A (UniProt Q9UL26)
inactive: [1] 0.041 | [2] 0.019 | [3] 0.043 | [4] -0.016 | [5] -0.043

RAB1B (UniProt Q9H0U4)
inactive: [1] -0.034 | [2] 0.009 | [3] 0.017 | [4] 0.01 | [5] 0.031

RARS2 (UniProt Q5T160)
inactive: [1] 0.021 | [2] 0.046 | [3] 0.044 | [4] -0.026 | [5] -0.007

RAC2 (UniProt P15153)
inactive: [1] -0.037 | [2] -0.001 | [3] -0.028 | [4] 0.017 | [5] 0.017

RAB1A (UniProt P62820)
inactive: [1] -0.008 | [2] 0.015 | [3] -0.009 | [4] -0.022 | [5] -0.002

RAPGEF4 (UniProt Q8WZA2)
inactive: [1] -0.038 | [2] 0.152 | [3] 0.268 | [4] -0.028 | [5] -0.176

RAMAC (UniProt Q9BTL3)
inactive: [1] 0.078 | [2] -0.115 | [3] -0.012 | [4] 0.021 | [5] 0.081

RANBP10 (UniProt Q6VN20)
inactive: [1] -0.104 | [2] 0.019 | [3] 0.065 | [4] -0.046 | [5] 0.003

RBM3 (UniProt P98179)
inactive: [1] 0.044 | [2] -0.162 | [3] -0.066 | [4] 0.085 | [5] 0.014

RAB20 (UniProt Q9NX57)
inactive: [1] -0.032 | [2] 0.008 | [3] 0.001 | [4] 0.003 | [5] 0.013

RB1CC1 (UniProt Q8TDY2)
inactive: [1] 0.198 | [2] 0.096 | [3] 0.032 | [4] 0.029 | [5] -0.063

RAD23A (UniProt P54725)
inactive: [1] 0.016 | [2] 0.035 | [3] 0.055 | [4] 0.014 | [5] 0.017

RAPGEF6 isoform 4 (UniProt Q8TEU7)
inactive: [1] -0.026 | [2] 0.091 | [3] -0.008 | [4] 0.283 | [5] -0.159

Two entries drawn at random from the list so far, as already listed:
RBM3 (UniProt P98179)
inactive: [1] 0.044 | [2] -0.162 | [3] -0.066 | [4] 0.085 | [5] 0.014

RB1CC1 (UniProt Q8TDY2)
inactive: [1] 0.198 | [2] 0.096 | [3] 0.032 | [4] 0.029 | [5] -0.063

The list continues.

RAB12, A0A3B3ITT1
inactive: [1] -0.003 | [2] 0.005 | [3] -0.008 | [4] -0.036 | [5] 0.011

RACK1 (UniProt D6RHH4)
inactive: [1] 0.069 | [2] -0.039 | [3] 0.319 | [4] 0.03 | [5] -0.067
